Results reported in patent US20240108662A1, “ENGINEERED CELLS FUNCTIONALIZED WITH IMMUNE CHECKPOINT MOLECULES AND USES THEREOF” (The University of North Carolina at Chapel Hill, priority 2020, published 2024).

B1: O54825 (protein, UniProt O54825 1-436, looked up)
chain: MPKFKVTRGASNREKHAPLAEQILAGNAVRAGTREKRRGREVEEEEEYVGPRLSRRILQQARQQQEELETDHGAGDRSAPPRERATRLGPGLPQDGSDEEDEEWPTLEKAAKMAGVDHQAEVIVDPEDERAIEMFMNKNPPVRRTLADIIMEKLTEKQTEVETVMSEVSGFPMPQLDPRVLEVYRGVREVLCKYRSGKLPKAFKVIPALSNWEQILYVTEPEAWTAAAMYQATRIFASNLKERMAQRFYNLVLLPRVRDDIAEYKRLNFHLYMALKKALFKPGAWFKGILIPLCESGTCTLREAIIVGSIITKCSIPVLHSSAAMLKIAEMEYSGANSIFLRLLLDKKYALPYRVLDALVFHFLAFRTEKRQLPVLWHQCLLTLAQRYKADLATEQKEALLELLRLQPHPQLSPEIRRELQSAVPRDVEDGGVTME
modifications: full-length
B2: P59326 (protein, UniProt P59326 1-559, looked up)
chain: MSATSVDPQRTKGQDNKVQNGSLHQKDAVHDNDFEPYLSGQSNPSNSYPSMSDPYLSSYYPPSIGFPYSLSEAPWSTAGDPPIPYLTTYGQLSNGDHHFMHDAVFGQPGGLGNNIYQHRFNFFPENPAFSAWGTSGSQGQQTQSSAYGSSYTYPPSSLGGTVVDGQTGFHSDSLNKAPGMNSLEQGMVGLKIGDVTTSAVKTVGSVVNSVALTGVLSGNGGTNVNMPVSKPTSWAAIASKPAKPQPKMKTKSGPIVGGALPPPPIKHNMDIGTWDNKGPAPKASAPQQTPSPQAAPQPQQVAQPLPVQPPPLVQPQYQSPQQPLQPRWVAPRNRNAAFGQSGGANSDSNSVGNAQPTSAPSVESHPVLEKLKAAHSYNPKEFDWNLKSGRVFIIKSYSEDDIHRSIKYSIWCSTEHGNKRLDGAFRSMSSKGPVYLLFSVNGSGHFCGVAEMKSPVDYGTSAGVWSQDKWKGKFDVKWIFVKDVPNNQLRHIRLENNDNKPVTNSRDTQEVPLEKAKQVLKIIASYKHTTSIFDDFSHYEKRQEEEEVVRKERQNRNKQ
modifications: full-length
B3: Q5SSZ5 (protein, UniProt Q5SSZ5 1-1440, looked up)
chain: MEDSHELDLTYVTERIIAVSFPASCSEESYLHSLQEVTRMLKCKHGDNYLVLNLSEKRYDLTKLNPKIMDVGWPELHAPPLDKMCTICKAQESWLNNDPQHVVVIHCRGGKGRIGVVISSYMHFTNVSASADQALDRFAMKKFYDDKISALMEPSQKRYVQFLSGLLSGAMKMNTSPLFLHFVIMHGVPSFDTGGACRPFLKLYQAMQPVYTSGIYNVGSENPSRIRIAIEPAQLLKGDIMVKCYHKKFRSATRDVIFRLQFHTGAVQGYGLLFGKEELDSACKDDRFPDYGKIELVFSATPEKIQGSEHLYSDQGVTVDYNTADPLIRWDSYENMSADGEVLHTQGPVDGSLYAKVRKKSASDTGIPSSPQGMPATSSPDHGDHTLSVSSDSGHSTASARTDKTEERLTPGARRGLSPQEKAELDQLLSGFGLEDSASSHKDMTDMRSKYSGTRHVVPAQVHVNGDAALKDRETDILDDEMPHHDLHSVDSLGTLSSSEGPQSTHLGPFTCLKSSQNSLLSDGFGNGVAEDHNGVLSPDLGLGVDTLYDRERMCGGREQKPLQPLLRKPSAPTPVQAYGQSNYSTQTWVRQQQMVAAHQYSFASDGEARLGSRSTVDNTGLAQPPPHIPVTPNRGASSRVAVQRGISNGPNPPDTQQLCPGKALQPRFQDDRVTNGVHQEPNTGSSPGSPTLDIDQSIEQLNRLILELDPTFEPIPTHLNALGISAVCPDGVGSGLRCSGRLDSVDGPGRSPGRQGDDPIGGRLRKLSIGQYDNDAASQVTFSKCGWGKAGVDPAPSLGSFSSPEDIKETVITAYPSDLNMIDGRIPNSKESSMCLTPSFPVSPETPYVKTSPRYPPFSPPEPQLSSPASLHKGREPRGCPEIISHTVGMSESPVGPKPTMLRADMPATPNFQQVFASSCTVSSNGPGQRRESPPSAERQWVESSPKSTLTLLGNSHPSESPLGTHEFCSSGKDSPGLPCFQSSELQASFHSHELSMSEPQGALPPAGSQTFLGFNTVTTATSVLPPGEDAGTLLVNSHGTSPAPGTPLLTTGAADNGFLPHNFLTVSPGASSHHSPGLQNQNVSLPGQPPLPEKKRASEGDRSLGSVSPSSSGFSSPHSGSTMSIPFPNVLPDFCKPSEVASPLPDSPNDKLVIVKFVQDTSKFWYKADISREQAIAMLKDKAPGSFIVRDSHSFRGAYGLAMKVATPPPSVLHLNKKAGDLSNELVRHFLIECTPKGVRLKGCSNEPYFGSLTALVCQHSITPLALPCKLLIPERDPLEEIAENSPQTAANSAAELLKQGAACNVWYLNSVEMESLTGHQAVQKALSMTLVQEPPPVSTVVHFKVSAQGITLTDNQRKLFFRRHYPVSSVIFCALDPQDRKWIKDGPSSKVFGFVARKQGSATDNVCHLFAEHDPEQPASAIVNFVSKVMIGSPKKI
modifications: full-length
B4: Q3U821 (protein, UniProt Q3U821 1-830, looked up)
chain: MVEEGVRVVRCGGSRLNFRRAVFSVDSKYIFCVSGDFVKVYSTTTEECVHILHGHTDLVSGILVNPSNHLQLYSCSFDGTIKLWDYVDGILIKTFTIGPKLHAFFIPLHAEDSVFLTISKEEPDIFQLVSVKLPKSTSQDVEARQLTFVLDYINRSPKCIAFGNEGEYVAAVRDFYLSVYFFKKKKTCNFTLPSTKNKKNAKNKFTCVACHPKEDCIASGHMDGKIRLWRNFHSDQKYTYTCLHWHHDMVMDLAFTVTGTSLLSGGRECVLVEWRDGSEKNKEFLPRLGSSIEHISVSPAGDLFCTSHSDNKITVIHRNLDASAVIQGLVKDRSISTGLMVDPRTKALVLNGKPGHLQFYSLQGDKQLYNLDIIQQEYINDEGLTQTELTKAAFGCSGTWLATVEQRQENENELELQMKLWNYSKKTQGFVLNTKIAMPHDDHITALCFNNAESYEKPILVTASRDGHFKVWILTDDSDIYKKAIAWTCDFVGSYHKYQATNCCFSEDGSLLAVSFEEIVTIWDSQTWELKCTFCQRAGKIRHLCFGRLTCSKYLLGTTDNGILCCWNLLSCSIQWSAKLNVRVMEPDPYSDHVAAVAQSSAGSDLFVFKPSEPRPLYIQKNVSREEVQWGVFVPRDVPESFTSETHQWLNRSQFYFLTKSQSLLTFSTKSPEEKLTPTSKQLLAEESLPTTPFSFILGKHRQQQGAKLTETSENELVQLPLTENIPAITELLHTPAHVLPSASFLCSLFVNSLLLSKETKSAEEVPDDVDMEGNKESDDSDEEYDLTEKDKETNNNTDLGEDAIHQLSKSEEKELRKFRKVDYSWLTAL
modifications: full-length
B5: Q569Z5 (protein, UniProt Q569Z5 1-1032, looked up)
chain: MGRESRHYRKRSASRGRSGSRSRSRSPSDKRSKRGDDRRSRSRDRDRRRERSRSRDKRRSRSRDRKRLRRSRSRERDRSRERRRSRSRDRRRSRSRSRGRRSRSSSPGSKTKKTENRSRSKEKAEGGDSSKEKKKDKDDKEDEKEKDAGNFDQNKLEEEMRKRKERVEKWREEQRKKAMENIGELKKEIEEMKQGKKWSLEDDDDDEDDPAEAEKEGTEMEDEELDPLDAYMEEVKEEVKKFNMRSVKGGAGNEKKSGPTVTKVVTVVTTKKAVVDADKKKGELMENDQDAMEYSSEEEEVDLQTALTGYQTKQRKLLEPVDHGKIEYEPFRKNFYVEVPELAKMSQEEVNVFRLEMEGITVKGKGCPKPIKSWVQCGISMKILNSLKKHGYEKPTPIQTQAIPAIMSGRDLIGIAKTGSGKTIAFLLPMFRHIMDQRSLEEGEGPIAVIMTPTRELALQITKECKKFSKTLGLRVVCVYGGTGISEQIAELKRGAEIIVCTPGRMIDMLAANSGRVTNLRRVTYVVLDEADRMFDMGFEPQVMRIVDNVRPDRQTVMFSATFPRAMEALARRILSKPIEVQVGGRSVVCSDVEQQVIVIEEEKKFLKLLELLGHYQESGSVIIFVDKQEHADGLLKDLMRASYPCMSLHGGIDQYDRDSIINDFKNGTCKLLVATSVAARGLDVKHLILVVNYSCPNHYEDYVHRAGRTGRAGNKGYAYTFITEDQARYAGDIIKALELSGTAVPPDLEKLWSDFKDQQKAEGKIIKKSSGFSGKGFKFDETEQALANERKKLQKAALGLQDSDDEDAAVDIDEQIESMFNSKKRVKDMAAPGTSSVPAPTAGNAEKLEIAKRLALRINAQKNLGIESQVDVMQQATNAILRGGTILAPTVSAKTIAEQLAEKINAKLNYVPLEKQEEERQEGGQSESFKRYEEELEINDFPQTARWKVTSKEALQRISEYSEAAITIRGTYFPPGKEPKEGERKIYLAIESANELAVQKAKAEITRLIKEELIRLQNSYQPTNKGRYKVL
modifications: full-length
B6: O35678 (protein, UniProt O35678 1-303, looked up)
chain: MPEASSPRRTPQNVPYQDLPHLVNADGQYLFCRYWKPSGTPKALIFVSHGAGEHCGRYDELAHMLKGLDMLVFAHDHVGHGQSEGERMVVSDFQVFVRDVLQHVDTIQKDYPDVPIFLLGHSMGGAISILVAAERPTYFSGMVLISPLVLANPESASTLKVLAAKLLNFVLPNMTLGRIDSSVLSRNKSEVDLYNSDPLVCRAGLKVCFGIQLLNAVARVERAMPRLTLPFLLLQGSADRLCDSKGAYLLMESSRSQDKTLKMYEGAYHVLHRELPEVTNSVLHEVNSWVSHRIAAAGAGCPP
modifications: full-length

Assay: Proteomic analysis of native murine pancreata and decelled pancreatic ECM (Table 1)
Set-up: species or system mouse
Settings: abundance of the listed protein in decelled pancreatic ECM
With B1 the “Pancreatic ECM: Mean of log2(intensities)” value was 24.23 a.u. For B2, the “Pancreatic ECM: Mean of log2(intensities)” value was 24.19 a.u. For B3, the “Pancreatic ECM: Mean of log2(intensities)” value was 25.18 a.u. For B4, the “Pancreatic ECM: Mean of log2(intensities)” value was 24.00 a.u. In the case of B5, the “Pancreatic ECM: Mean of log2(intensities)” value is reported as 25.20 a.u. In the case of B6, the “Pancreatic ECM: Mean of log2(intensities)” value is reported as 24.61 a.u.

Same assay, conditions: abundance of the listed protein in native murine pancreas tissue
With B1 the “Native pancreas tissue: Mean of log2(intensities)” value was 21.26 a.u. In the case of B2, the “Native pancreas tissue: Mean of log2(intensities)” value is reported as 21.39 a.u. With B3 the “Native pancreas tissue: Mean of log2(intensities)” value was 22.22 a.u. In the case of B4, the “Native pancreas tissue: Mean of log2(intensities)” value is reported as 21.24 a.u. For B5, the “Native pancreas tissue: Mean of log2(intensities)” value was 22.38 a.u. For B6, the “Native pancreas tissue: Mean of log2(intensities)” value was 21.79 a.u.
